According to doi:10.1101/120204:
Read-outs that look alike come from different tables or passages of the source. No constants are given. Whether binding was seen depends on the method and setting. Binding seen in cells or lysates may run through a third protein. These calls come from enrichment with a bait or labelling near it, and not all partners need be listed. Each block holds one molecule with its values, some of them ahead of it.

Chains of the proteins cited; added tags and fusions are not shown. Residues count along the entry.
UniProt P11362, residues 22-822: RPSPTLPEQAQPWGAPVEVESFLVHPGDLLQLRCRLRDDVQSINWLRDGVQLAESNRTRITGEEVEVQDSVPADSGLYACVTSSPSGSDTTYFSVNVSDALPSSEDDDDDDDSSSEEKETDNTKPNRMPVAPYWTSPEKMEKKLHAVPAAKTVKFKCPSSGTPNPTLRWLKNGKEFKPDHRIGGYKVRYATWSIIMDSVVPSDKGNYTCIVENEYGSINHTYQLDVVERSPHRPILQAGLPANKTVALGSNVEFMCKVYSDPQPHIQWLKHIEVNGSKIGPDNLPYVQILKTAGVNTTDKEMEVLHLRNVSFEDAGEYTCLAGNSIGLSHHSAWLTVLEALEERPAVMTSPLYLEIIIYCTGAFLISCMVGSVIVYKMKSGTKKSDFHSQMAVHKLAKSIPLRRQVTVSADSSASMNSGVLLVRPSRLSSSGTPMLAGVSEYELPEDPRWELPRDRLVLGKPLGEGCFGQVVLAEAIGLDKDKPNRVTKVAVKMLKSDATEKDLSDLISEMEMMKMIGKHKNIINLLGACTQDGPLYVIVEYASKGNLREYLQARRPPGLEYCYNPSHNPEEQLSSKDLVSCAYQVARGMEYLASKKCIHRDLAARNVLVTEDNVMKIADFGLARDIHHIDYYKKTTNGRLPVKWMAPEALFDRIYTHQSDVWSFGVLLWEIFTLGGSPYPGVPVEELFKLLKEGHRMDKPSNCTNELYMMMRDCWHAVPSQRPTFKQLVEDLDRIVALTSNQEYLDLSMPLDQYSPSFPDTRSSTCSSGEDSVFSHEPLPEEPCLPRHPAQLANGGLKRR
UniProt P24864: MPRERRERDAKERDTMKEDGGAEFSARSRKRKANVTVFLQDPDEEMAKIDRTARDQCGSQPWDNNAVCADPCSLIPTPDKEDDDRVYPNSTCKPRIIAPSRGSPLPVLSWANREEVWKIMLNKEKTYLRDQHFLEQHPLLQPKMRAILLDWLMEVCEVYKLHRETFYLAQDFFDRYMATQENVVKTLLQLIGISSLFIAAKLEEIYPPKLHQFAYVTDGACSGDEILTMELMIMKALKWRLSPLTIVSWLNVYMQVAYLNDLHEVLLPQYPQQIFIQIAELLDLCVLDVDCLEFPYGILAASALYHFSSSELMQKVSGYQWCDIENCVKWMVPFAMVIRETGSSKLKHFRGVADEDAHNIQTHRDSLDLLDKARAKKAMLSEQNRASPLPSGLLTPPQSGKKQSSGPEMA
UniProt O95067: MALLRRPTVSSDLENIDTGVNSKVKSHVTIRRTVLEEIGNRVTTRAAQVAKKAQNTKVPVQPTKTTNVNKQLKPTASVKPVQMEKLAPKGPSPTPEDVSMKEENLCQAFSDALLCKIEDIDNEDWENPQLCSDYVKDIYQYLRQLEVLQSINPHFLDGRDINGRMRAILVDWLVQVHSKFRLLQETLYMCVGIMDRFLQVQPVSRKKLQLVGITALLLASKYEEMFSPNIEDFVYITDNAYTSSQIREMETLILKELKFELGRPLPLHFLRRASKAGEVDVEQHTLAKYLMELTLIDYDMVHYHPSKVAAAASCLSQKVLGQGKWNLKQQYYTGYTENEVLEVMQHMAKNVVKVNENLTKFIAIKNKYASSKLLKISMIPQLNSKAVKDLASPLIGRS

Experiments:
[1] = target: FGFR1 fused to BirA* (FGFR1-BirA*), with a C-terminal HA tag (human) (UniProt P11362); test: proximity labelling
[2] = target: FGFR1 fused to BirA* (FGFR1-BirA*), with a C-terminal HA tag (human) (UniProt P11362); test: proximity labelling; remark: listed apart in the source

binding [1]: binds
Molecule: CCNE1 (from UniProt P24864 1-410)

binding [2]: binds
B1: SHC4 (protein, UniProt Q6S5L8 1-630)
chain: MRERGQDSLAGLVLYVGLFGHPGMLHRAKYSRFRNESITSLDEGSSGGSVGNKGSPQPPHPALAPHLPTEDATLPSQESPTPLCTLIPRMASMKLANPATLLSLKNFCLGTKEVPRLKLQESRDPGSSGPSSPETSLSRSGTAPPPQQDLVGHRATALTPDSCPLPGPGEPTLRSRQDRHFLQHLLGMGMNYCVRYMGCVEVLQSMRSLDFGMRTQVTREAISRLCEAVPGANGAIKKRKPPVKFLSTVLGKSNLQFSGMNIKLTISTCSLTLMNLDNQQIIANHHMQSISFASGGDPDTTDYVAYVAKDPVNQRACHILECHNGMAQDVISTIGQAFELRFKQYLKNPSLNTSCESEEVHIDSHAEEREDHEYYNEIPGKQPPVGGVSDMRIKVQATEQMAYCPIQCEKLCYLPGNSKCSSVYENCLEQSRAIGNVHPRGVQSQRDTSLLKHTCRVDLFDDPCYINTQALQSTPGSAGNQRSAQPLGSPWHCGKAPETVQPGATAQPASSHSLPHIKQQLWSEECYHGKLSRKAAESLLVKDGDFLVRESATSPGQYVLSGLQGGQAKHLLLVDPEGKVRTKDHVFDNVGHLIRYHMDNSLPIISSGSEVSLKQPVRKDNNPALLHSNK

More lines, now with the values behind:

Molecule: CCNB2 (from UniProt O95067 1-398)
binding [1]: binds

B2: FGFR substrate 2 (FRS2) (protein, UniProt Q8WU20 1-508)
chain: MGSCCSCPDKDTVPDNHRNKFKVINVDDDGNELGSGIMELTDTELILYTRKRDSVKWHYLCLRRYGYDSNLFSFESGRRCQTGQGIFAFKCARAEELFNMLQEIMQNNSINVVEEPVVERNNHQTELEVPRTPRTPTTPGFAAQNLPNGYPRYPSFGDASSHPSSRHPSVGSARLPSVGEESTHPLLVAEEQVHTYVNTTGVQEERKNRTSVHVPLEARVSNAESSTPKEEPSSIEDRDPQILLEPEGVKFVLGPTPVQKQLMEKEKLEQLGRDQVSGSGANNTEWDTGYDSDERRDAPSVNKLVYENINGLSIPSASGVRRGRLTSTSTSDTQNINNSAQRRTALLNYENLPSLPPVWEARKLSRDEDDNLGPKTPSLNGYHNNLDPMHNYVNTENVTVPASAHKIEYSRRRDCTPTVFNFDIRRPSLEHRQLNYIQVDLEGGSDSDNPQTPKTPTTPLPQTPTRRTELYAVIDIERTAAMSNLQKALPRDDGTSRKTRHNSTDLPM
binding [2]: binds
